# Test results reported in PubChem BioAssay AID602346 (Broad Institute, 2012).
# The whole screen tested about 340,000 compounds, of which about 1,200 (0.35%) were called active. The inconclusive results got no clear call from the source; some entries with a clear call stand among them for comparison. Rule as the data show it: active = inhibition above about 50% (passing the limit was not always enough); inconclusive = no clear call, values can overlap the other calls; inactive = below about 31%. A structure can be active in one record and inactive in another.
# Experiment: blockers of Vif multimerization in cells – imaging, HEK293T, single point, primary screen (AID 602346)
# Conditions: Vif self-association by quenched fluorescence, 24 h, at 7.49 µM, stronger effect = higher value
row,Structure (SMILES),inhibition
1,O=C(NC1(C(F)(F)F)NC(=O)N(Cc2ccccc2)C1=O)c1cccs1 (stereo not given),inconclusive: 22.7%
2,CCn1c(CCNS(=O)(=O)c2ccccc2Br)nnc1SC,active: 54.2%
3,COc1cccc(NC(=O)C2CCN(S(=O)(=O)c3ccc4[nH]c(=O)ccc4c3)CC2)c1,inconclusive: 47.8%
4,COc1ccccc1N1C(=O)S/C(=C\c2ccc(C)s2)C1=O,inconclusive: 29.9%
5,COc1ccc(CC(=O)OCC(=O)Nc2cccc(Br)c2)cc1,active: 74.2%
6,CCNC(=S)NNC(=O)c1cccn(Cc2ccc(Cl)cc2)c1=O,inconclusive: 43.9%
7,CCOc1ccc2ccccc2c1C(=O)N1CCOCC1,inconclusive: 29.9%
8,CSc1ccc(S(=O)(=O)NCC(=O)OCC(=O)N2CCC(C)CC2)cc1[N+](=O)[O-],inconclusive: 23.3%
9,Cc1ccc(S(=O)(=O)Nc2ccc(SC(F)F)cc2)c(C)c1,active: 60.6%
10,CCOC(=O)c1ccc(NS(=O)(=O)N2CCCCCC2)cc1,inactive: -1.74%
11,COCCOc1ccc(C(F)(F)F)cc1NC(=O)COC(=O)c1ccc(N2CCCC2=O)cc1,inconclusive: 40.1%
12,Cc1cc2c(cc1S(=O)(=O)N1CCOCC1)NC(=O)CO2,inconclusive: 34.1%
13,COc1ccc(OC)c(NC(=O)CSc2nc3[nH]c(=O)[nH]c(=O)c3s2)c1,inconclusive: 40%
14,Cc1nnc(SCCn2c(N(C)Cc3ccccc3)nc3c2c(=O)[nH]c(=O)n3C)s1,active: 61.9%
15,CC(C)OP(=O)(c1ccc(N(C)C)cc1)C(O)c1ccc(C(C)C)cc1 (stereo not given),inactive: -5.52%
16,CC(OC(=O)c1cc(=O)c2ccccc2o1)C(=O)c1ccccc1 (stereo not given),inconclusive: 38.9%
17,CCn1c(SCC(=O)Nc2cc(C)on2)nnc1-c1ccc(OC)cc1,active: 50.1%
18,C/C(=C\C(=O)c1ccc(Br)cc1)NNC(=O)c1ccccc1,inactive: -10.5%
19,COc1ccc(C2CC(c3ccccc3)=NN2C(=O)c2ccc(Cl)c([N+](=O)[O-])c2)cc1 (stereo not given),active: 89.1%
20,Cc1ccc(CCC(=O)Nc2ncc(Cc3cc(Cl)ccc3Cl)s2)o1,active: 144%
21,O=C(CN(C(=O)c1ccccc1)C(=O)c1ccccc1)OCc1ccccc1,active: 77.5%
22,O=C(Cn1cncn1)N/N=C/c1ccncc1,inconclusive: 33.1%
23,Nc1ncnc(NCc2ccccc2)c1[N+](=O)[O-],inconclusive: -3.08%
24,CCCc1nnc2n1N=C(c1ccc(OC)c(OC)c1)CS2,active: 57.3%
25,CCOc1nc(N2CCCCC2)nc(-n2cc(-c3ccccc3)nn2)n1,active: 55.3%
26,COC1OC(CO)C(N=C(C)C)C1O (stereo not given),inconclusive: 35.9%
27,COCCN(C(=O)COC(=O)CSc1ccc(Cl)cc1)c1c(N)n(Cc2ccccc2)c(=O)[nH]c1=O,inconclusive: 34.3%

row,Structure (SMILES),inhibition
1,CC(=O)Nc1ccc(NC(=O)c2cc(-n3cnnc3)ccc2Cl)cc1,inactive: -1.86%
2,CC(C)N(C(=O)[C@H]1C[C@H](CC(=O)NCCN2CCOCC2)C(=O)N2CCc3c([nH]c4cc(CCC(=O)N(C)C)ccc34)[C@]12C)C(C)C,active: 103%
3,CCN(CC)c1ccc(CC(=O)NC(C)Cc2ccccc2)cc1 (stereo not given),active: 101%
4,Cc1cc(C)n(CCC(=O)N2c3ccccc3CC2C)n1 (stereo not given),inconclusive: 38.8%
5,OCC1OC(n2cnc3c(NC4CCCC4)ncnc32)C(O)C1O (stereo not given),inconclusive: 49.5%
6,CC(C)(C)NC(=O)C(c1ccc(O)cc1)N(Cc1ccc2c(c1)OCO2)C(=O)CCl (stereo not given),active: 79.8%
7,Cc1ccc(-c2nc(SC(C)C(=O)N3CCOCC3)n[nH]2)cc1 (stereo not given),inactive: -6.94%
8,CC(C)C(NC(=O)c1ccccc1NC(=O)C(C)(C)C)C(=O)N1CCOCC1 (stereo not given),active: 69.1%
9,O=C1c2cccc3c([N+](=O)[O-])ccc(c23)C(=O)N1c1ccccn1,active: 113%
10,Cc1nnc2ccc(-c3cccc(NS(=O)(=O)c4ccccc4[N+](=O)[O-])c3)nn12,inconclusive: 28.9%
11,Cc1cc(C)cc(C(=O)OCC(=O)Nc2ncccn2)c1,active: 56.3%
12,CCOC(=O)c1ccc(-c2ccc(/C=N/NC(=O)c3cncc(Br)c3)o2)cc1,active: 58%
13,COc1cc(OC)cc(C(=O)N(CN2CCCC2=O)c2ccccc2OC)c1,active: 53.6%
14,CC(C)(C)NC(=S)NCC1CC1,inconclusive: 19.1%
15,O=C1c2ccccc2C(=O)N1Cc1nn2c(-c3ccc(Cl)cc3)nnc2s1,inactive: 22%
16,Cc1cc(C)c(N(C(=O)c2csnn2)C(C(=O)NC2CCCC2)c2ccncc2)c(C)c1 (stereo not given),inconclusive: 30.4%
17,COC(=O)C1CC23C=CCN4CCC5(c6ccccc6NC15C2C)C43 (stereo not given),inconclusive: 23.7%
18,CCc1ccccc1NC(=O)COC(=O)C1CC(=O)N(c2ccc(F)cc2)C1 (stereo not given),inconclusive: 41.6%
19,COc1ccc(OC)c(NC(=O)c2nc(S(=O)(=O)Cc3ccccc3)ncc2Cl)c1,inconclusive: 41.7%
20,CC(=O)c1cnc2c(-c3ccccc3)cnn2c1C,inactive: 22%
21,Cc1cc(Cl)ccc1OCC(=O)Nc1nc(-c2cccnc2)cs1,inconclusive: 40.1%
22,CC(CN)(NS(=O)(=O)c1ccccc1)c1ccccc1 (stereo not given),active: 66.3%
23,COc1cc(C(=O)Nc2ccc3c(c2)Cc2ccccc2-3)cc(OC)c1OC,inconclusive: 42.4%
24,O=C(NCc1n[nH]c(=S)n1-c1cccc(C(F)(F)F)c1)c1ccc(S(=O)(=O)N2CCCCC2)cc1,inconclusive: 44.5%
25,CCN1C(=NCCc2ccccn2)N[C@@H](c2cccc(F)c2)C(C(=O)OC)=C1C,inactive: -0.669%
26,CCCCn1c(N)c(N(CCOC)C(=O)CCN2C(=O)C3CC=CCC3C2=O)c(=O)[nH]c1=O (stereo not given),inconclusive: 33.9%
27,C/C(=N\NC(=O)CSc1nc2ccccc2o1)c1ccc(O)cc1,inactive: -1.91%

row,Structure (SMILES),inhibition
1,CCCCCCCN1C(Nc2ccccc2)=NC[C@@H]1CC(C)C,inactive: -1.71%
2,CC1CN=C(NC2CCCCC2C)S1 (stereo not given),inconclusive: 25.5%
3,CC1(C(=O)NCC2CCCO2)Oc2cccnc2NC1=O (stereo not given),inactive: 29.5%
4,COc1ccc(-c2noc(-c3cccc(Cl)c3)n2)cc1OC,inactive: -1.09%
5,O=C(CSc1nnc(-c2cccs2)o1)N1CCCc2ccccc21,inconclusive: 15.1%
6,Cc1cc(Br)ccc1NC(=O)CNC(=O)CSc1n[nH]c(N)n1,inconclusive: 48.9%
7,COc1ccc(C(C)=O)cc1COC(=O)c1ccc(OCc2c(C)noc2C)cc1,inconclusive: 84.1%
8,CCOC(=O)c1sc(NN=C(C(=O)OC)C(=O)OC)c(C(=O)OCC)c1C,inactive: -2.86%
9,O=C(c1ccco1)N1CCN(C2CN(Cc3ccc([N+](=O)[O-])cc3)S(=O)(=O)C2)CC1 (stereo not given),inconclusive: 43.2%
10,Cn1c(OCc2cccnc2)nc2c1c(=O)n(Cc1ccc(Cl)cc1)c(=O)n2C,inconclusive: 30.1%
11,CC(O)CN(C)CC/C=C1/c2ccccc2CSc2ccccc21 (stereo not given),active: 86.2%
12,CN(C)CCCNCCCNC(=O)c1ccco1,active: 64.8%
13,CN(CC(=O)Nc1cccc(F)c1)C(=O)C1CCC(C(=O)N(C)CC(=O)Nc2cccc(F)c2)CC1 (stereo not given),inconclusive: 29.2%
14,CCCc1cc(N2CCCC(C(=O)NCC)C2)n2ncnc2n1 (stereo not given),inconclusive: 44.6%
15,CCOC(=O)c1nn(-c2cccc(OC)c2)c(-c2ccccc2)c1C(=O)c1ccccc1,inconclusive: 12.6%
16,CCCn1nnnc1SCC(=O)N1CCCCC1,active: 56.5%
17,COc1cc(-c2cnc3c(NC=O)cc(-c4cccc(NC(C)=O)c4)cn23)cc(OC)c1OC,active: 72.7%
18,Cc1ccc(NS(=O)(=O)c2cccc(C(=O)NC3CCN(Cc4ccccc4)CC3)c2)cc1,inactive: -3.63%
19,CC1Cc2ccccc2N1CC(=O)Nc1ccc(N2CCOCC2)cc1 (stereo not given),inactive: 4.07%
20,CC1=C(/C=C/C(C)=C/C=C/C(C)=C/C(=O)O)C(C)(C)CCC1,active: 64.9%
21,Cc1cc(=O)oc2cc(OC(C)C(=O)NCC3CCCO3)ccc12 (stereo not given),inactive: 1.98%
22,Cc1oc(-c2ccc(Cl)cc2)cc1C(=O)O,inactive: -11.7%
23,CC(=O)C[C@@H](O)CC(=O)[C@@H]1OC(=O)CCCCCCCCc2ccccc21,inactive: 4.05%
24,COc1ccc(C(=O)NCC(C)NC(=O)c2ccc(OC)c(OC)c2)cc1OC (stereo not given),inconclusive: 33%
25,O=C(c1ccc(-c2cc(O)c3ncccc3c2)cc1)N1CCNCC1,inactive: -0.296%
26,Fc1ccccc1CNc1cc(Cl)cc(Cl)c1,active: 119%

# Part of the list above in order of heavy-atom count, falling.
row,Structure (SMILES),inhibition
23,CC(=O)C[C@@H](O)CC(=O)[C@@H]1OC(=O)CCCCCCCCc2ccccc21,inactive: 4.05%
11,CC(O)CN(C)CC/C=C1/c2ccccc2CSc2ccccc21 (stereo not given),active: 86.2%
22,Cc1oc(-c2ccc(Cl)cc2)cc1C(=O)O,inactive: -11.7%
